Here are results for 22 compounds from the supplement of paper PMC4635364.

Counter-ions that a name gives are not always drawn. This is one part of the list. Single values are uncertain here, since repeats match poorly.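 Human fetal ventral-midbrain neural progenitor line ReNCell VM, differentiated without mitogens. Images stained for doublecortin (early neurons) or tyrosine hydroxylase (dopaminergic neurons) were scored by blinded raters against untreated wells (0 = no change). Repeats and both raters were averaged, and compounds averaging 2 or higher were picked as hits for retesting.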

Experiment [1] has as its system ReNCell VM. The experiment is described as follows: neuronal differentiation score (DCX+ cell fraction vs untreated, manual image score) (score (-3 to 3)); higher = more neuronal differentiation. The settings on record: 2 uM, 2 weeks.
For experiment [2], the system named is ReNCell VM. The experiment is described as follows: dopaminergic neuron differentiation score (TH+ cell fraction vs untreated, manual image score) (score (0 to 3)); higher = more TH+ dopaminergic neuron differentiation. The following applies: 2 uM, 4 weeks, BDNF 10 ng/ml + GDNF 10 ng/ml.

As for `COc1ccc(/C=C/C(=O)O)cc1OC`, the neuronal differentiation score in the experiment on ReNCell VM [1] (library: Spectrum) is inactive: 0. The “dopaminergic neuron differentiation score” value in the experiment on ReNCell VM [2] (library: Spectrum) is inactive: 0.

Regarding `CCOC(=O)c1ncn2c1CN(C)C(=O)c1cc(F)ccc1-2`, in the experiment on ReNCell VM [1] (library: Spectrum), the neuronal differentiation score is inactive: 0. In the experiment with ReNCell VM [2] (library: Spectrum), the “dopaminergic neuron differentiation score” value was inactive: 0.

Take `CN1CCC(OC(c2ccccc2)c2ccccc2)CC1` [Diphenylpyraline hydrochloride]: the neuronal differentiation score in the experiment with ReNCell VM [1] (library: Prestwick) is inactive: 0. In the experiment on ReNCell VM [2] (library: Prestwick), the “dopaminergic neuron differentiation score” value is inactive: 0.

On to `Nc1ccn([C@H]2CC[C@@H](CO)O2)c(=O)n1` [Zalcitabine], for which, in the experiment on ReNCell VM [1] (library: Prestwick), the neuronal differentiation score was inactive: 0. Besides, the “dopaminergic neuron differentiation score” value in the experiment with ReNCell VM [2] (library: Prestwick) is inactive: 0.

As to `CC(C)(O/N=C(\C(=O)N[C@@H]1C(=O)N2C(C(=O)[O-])=C(C[n+]3ccccc3)CS[C@H]12)c1csc(N)n1)C(=O)O` [Ceftazidime pentahydrate], the neuronal differentiation score in the experiment with ReNCell VM [1] (library: Prestwick) was inactive: 0. Also, the “dopaminergic neuron differentiation score” value in the experiment with ReNCell VM [2] (library: Prestwick) was inactive: 0.

`CC(C)(C)NC[C@H](O)COc1ccccc1C1CCCC1` [Penbutolol sulfate]: the neuronal differentiation score in the experiment on ReNCell VM [1] (library: Prestwick) is inactive: 0. For the same compound, the “dopaminergic neuron differentiation score” value with ReNCell VM [2] (library: Prestwick) is inactive: 0.

Turning to `CN(C)CCC(c1ccc(Cl)cc1)c1ccccn1` (centres undefined) [Chlorpheniramine maleate], in the experiment with ReNCell VM [1] (library: Prestwick), the neuronal differentiation score is inactive: 0. Moreover, the “dopaminergic neuron differentiation score” value in the experiment with ReNCell VM [2] (library: Prestwick) is inactive: 0.

On to `CC1=C(/C=C/C(C)=C/C=C/C(C)=C/C=C/C=C(C)/C=C/C=C(C)/C=C/C(=O)[C@]2(C)C[C@@H](O)CC2(C)C)C(C)(C)C[C@H](O)C1`, for which the neuronal differentiation score with ReNCell VM [1] (library: Spectrum) is inactive: 0. Also, the “dopaminergic neuron differentiation score” value in the experiment with ReNCell VM [2] (library: Spectrum) is inactive: 0.

`Cn1c(=O)c2c(ncn2CC(=O)O)n(C)c1=O` [Acefylline]: the neuronal differentiation score with ReNCell VM [1] (library: Prestwick) was inactive: 0. In the experiment on ReNCell VM [2] (library: Prestwick), the “dopaminergic neuron differentiation score” value was inactive: 0.

As to `CC(=O)NC(CC(=O)O)C(=O)O` (racemic) [Aspartic acid, N-acetyl (R,S)], the neuronal differentiation score in the experiment on ReNCell VM [1] (library: Phytochemical) was inactive: 0. Besides, the “dopaminergic neuron differentiation score” value in the experiment on ReNCell VM [2] (library: Phytochemical) is inactive: 0.

On to `Cc1noc(NS(=O)(=O)c2cccc3c(N(C)C)cccc23)c1C`, for which the neuronal differentiation score with ReNCell VM [1] (library: Tocriscreen) is inactive: 0. Moreover, the “dopaminergic neuron differentiation score” value with ReNCell VM [2] (library: Tocriscreen) is inactive: 0.

As for `CC(=O)Oc1ccccc1C(=O)Nc1ncc([N+](=O)[O-])s1`, in the experiment with ReNCell VM [1] (library: Spectrum), the neuronal differentiation score was inactive: 0. The “dopaminergic neuron differentiation score” value in the experiment with ReNCell VM [2] (library: Spectrum) is inactive: 0.

For `Cc1cc(-c2ccccc2)nnc1NCCN1CCOCC1`, in the experiment with ReNCell VM [1] (library: Spectrum), the neuronal differentiation score was inactive: 0. The “dopaminergic neuron differentiation score” value with ReNCell VM [2] (library: Spectrum) was inactive: 0.

As to `c1ccc(CC2=NCCN2)cc1`, in the experiment with ReNCell VM [1] (library: Spectrum), the neuronal differentiation score was inactive: 1. In addition, in the experiment with ReNCell VM [2] (library: Spectrum), the “dopaminergic neuron differentiation score” value is inactive: 0.

Turning to `CN(C)CCC=C1c2ccccc2COc2ccccc21`, the neuronal differentiation score with ReNCell VM [1] (library: Spectrum) is inactive: 0. For the same compound, in the experiment with ReNCell VM [2] (library: Spectrum), the “dopaminergic neuron differentiation score” value was inactive: 0.

For `Nc1ccc(S(=O)(=O)O)cc1.Nc1ccc(S(=O)(=O)O)cc1.[Zn]`, in the experiment on ReNCell VM [1] (library: Spectrum), the neuronal differentiation score was inactive: 0. Further, the “dopaminergic neuron differentiation score” value in the experiment with ReNCell VM [2] (library: Spectrum) was inactive: 0.

Consider `C#C[C@]1(O)CC[C@H]2[C@@H]3[C@H](C)CC4=C(CCC(=O)C4)[C@H]3CC[C@@]21C` [Tibolone], for which, in the experiment on ReNCell VM [1] (library: Prestwick), the neuronal differentiation score was inactive: 0. For the same compound, the “dopaminergic neuron differentiation score” value with ReNCell VM [2] (library: Prestwick) is inactive: 0.

Consider `CC1(C)O[C@@H]2C[C@H]3[C@@H]4C[C@H](F)C5=CC(=O)C=C[C@]5(C)[C@H]4[C@@H](O)C[C@]3(C)[C@]2(C(=O)CO)O1` [Flunisolide], for which the neuronal differentiation score with ReNCell VM [1] (library: Prestwick) is inactive: 0. Also, the “dopaminergic neuron differentiation score” value with ReNCell VM [2] (library: Prestwick) was inactive: 0.

In the case of `COCC(=O)Nc1c(I)c(C(=O)NCC(O)CO)c(I)c(C(=O)N(C)CC(O)CO)c1I` (centres undefined) [Iopromide], in the experiment on ReNCell VM [1] (library: Prestwick), the neuronal differentiation score was inactive: 0. Also, the “dopaminergic neuron differentiation score” value in the experiment with ReNCell VM [2] (library: Prestwick) is inactive: 0.

On to `CC(=O)Nc1ccc(O)cc1`, for which the neuronal differentiation score with ReNCell VM [1] (library: Spectrum) was inactive: 1. The “dopaminergic neuron differentiation score” value in the experiment on ReNCell VM [2] (library: Spectrum) was inactive: 0.

Regarding `CN1CCCN=C1COC(=O)C(O)(c1ccccc1)C1CCCCC1` (centres undefined), the neuronal differentiation score with ReNCell VM [1] (library: Spectrum) is inactive: 0. Also, the “dopaminergic neuron differentiation score” value with ReNCell VM [2] (library: Spectrum) is inactive: 0.

Regarding `COC(=O)C[C@](O)(CCCC(C)(C)O)C(=O)O[C@@H]1C(OC)=C[C@]23CCCN2CCc2cc4c(cc2[C@H]13)OCO4` [Homoharringtonine], in the experiment with ReNCell VM [1] (library: Tocriscreen), the neuronal differentiation score was inactive: 0. Further, the “dopaminergic neuron differentiation score” value in the experiment on ReNCell VM [2] (library: Tocriscreen) was inactive: 0.
